We go through 36 compounds from the supplement of paper PMC10735217.

Counter-ions that a name gives are not always drawn. This is one part of the list. Single values are uncertain here, since repeats match poorly.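 Human kidney-derived cells stably carry a construct in which eight TEAD-binding elements drive luciferase, measured by luminescence in a drug-repurposing library screen. A hit is any compound whose signal exceeds the plate mean by more than five robust Z scores.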

In the experiment the test system is HEK293A TEAD-LUC reporter. Nature of the experiment: TEAD-luciferase reporter activity (YAP activation), robust Z score vs plate; higher = stronger YAP/TEAD activation. Conditions: 24 h.

Consider `O=C(O)c1ccc2nc(-c3cc(Cl)cc(Cl)c3)oc2c1`, for which the TEAD-luciferase reporter activity is inactive: 0.897 (compound concentration: 200 nM), inactive: 0.323 (compound concentration: 2 uM) and active: 6.34 (compound concentration: 10 uM).
The corresponding values for `COc1ccc(/C=C2\C(=O)OC[C@@H]2Cc2ccc3c(c2)OCO3)cc1OC` [Kaerophyllin] are inactive: -0.366, inactive: -1.13 and inactive: -0.937.
The corresponding values for `O=c1c2c(Cc3ccccc3)n[nH]c2c2cccnc2n1-c1ccccc1` are inactive: 0.336, inactive: 1.56 and inactive: 1.03.
The corresponding values for `CN(c1ccc(N2C[C@@H](CN)OC2=O)cc1F)S(C)(=O)=O` are inactive: -0.636, inactive: -0.737 and inactive: -0.381.
For `O=C1NC(=O)C2=C(CCCC2)C1=Cc1ccccc1`, the TEAD-luciferase reporter activity is, setting by setting: (compound concentration: 200 nM) inactive: -1.32; (compound concentration: 2 uM) inactive: -2.01; (compound concentration: 10 uM) inactive: -0.364.
The corresponding values for `Cn1cc(-c2cnc3[nH]cc(Cc4cc(F)c(OCc5nc6ccccc6[nH]5)cc4Cl)c3c2)cn1` are inactive: -1.79, inactive: -0.623 and inactive: -1.56.
The corresponding values for `CCCCCCN(C)CCCC(C#N)(c1cc(OC)c(OC)c(OC)c1)C(C)C` (centres undefined) are inactive: -2.05, inactive: -1.09 and inactive: -0.284.
For `COc1ccc2c(=O)c(C)c(-c3ccccc3)oc2c1CN(C)C` [Dimefline Hydrochloride], in that order: inactive: -0.0969, inactive: -0.272 and inactive: -0.815.
As for `NC(=O)c1ncn([C@@H]2O[C@H](CO)[C@@H](O)[C@H]2O)n1` [Ribavirin], the TEAD-luciferase reporter activity is, setting by setting: (compound concentration: 200 nM) inactive: -0.721; (compound concentration: 2 uM) inactive: -0.929; (compound concentration: 10 uM) inactive: 0.0448.
The corresponding values for `CCCNc1nc(NCCC)nc(N(C)OC)n1` are inactive: -0.3, inactive: 0.815 and inactive: -0.329.
For the compound `Cc1c(C)c2c(c(C)c1O)CCC(C)(COc1ccc(CC3SC(=O)NC3=O)cc1)O2` (centres undefined) [Troglitazone], the TEAD-luciferase reporter activity was inactive: 0.447 (compound concentration: 200 nM) and inactive: -1.27 (compound concentration: 10 uM).
For `Cc1c(C)c2c(c(C)c1O)CCC(C)(COc1ccc(CC3SC(=O)NC3=O)cc1)O2` (centres undefined) [troglitazone], under “compound concentration: 2 uM”, the TEAD-luciferase reporter activity is inactive: -0.664.
`CNc1cccc(CCOc2ccc3c(c2)CN(CC(F)(F)F)C(=O)[C@H](CC(=O)O)C3)n1`: the TEAD-luciferase reporter activity (compound concentration: 200 nM) was inactive: 0.666, the TEAD-luciferase reporter activity (compound concentration: 2 uM) was inactive: -2.13 and the TEAD-luciferase reporter activity (compound concentration: 10 uM) is inactive: -0.838.
For the compound `CN(C)C1C(O)=C(C(N)=O)C(=O)C2(O)C(O)=C3C(=O)c4c(O)cccc4C(C)(O)C3CC12` (centres undefined) [Tetracycline], the TEAD-luciferase reporter activity (compound concentration: 2 uM) was inactive: -2.05.
`CN(C)C1C(O)=C(C(N)=O)C(=O)C2(O)C(O)=C3C(=O)c4c(O)cccc4C(C)(O)C3CC12` (centres undefined) [Helicobacter pylori therapy, P]: the TEAD-luciferase reporter activity was inactive: -2.07 (compound concentration: 200 nM) and inactive: -1.08 (compound concentration: 10 uM).
Take `COc1cc(NCc2ccc3nc(N)nc(N)c3c2C)cc(OC)c1OC` [trimetrexate]: the TEAD-luciferase reporter activity reads like this: (compound concentration: 200 nM) inactive: -0.663; (compound concentration: 2 uM) inactive: -0.923; (compound concentration: 10 uM) inactive: -0.5.
`COc1cc(NCc2ccc3nc(N)nc(N)c3c2C)cc(OC)c1OC` [trimetrexate glucuronate]: for the setting “compound concentration: 2 uM”, the TEAD-luciferase reporter activity is inactive: -0.835.
Consider `CC1(C)Cc2ccccc2C=[N+]1[O-]`, for which the TEAD-luciferase reporter activity was inactive: -0.627 (compound concentration: 200 nM), inactive: -0.552 (compound concentration: 2 uM) and inactive: -0.599 (compound concentration: 10 uM).
For the compound `COc1ccc(C(=O)NC2CCCN(Cc3ccc(-c4cc(C)cc(C)c4)cc3)C2)cc1` (centres undefined), the TEAD-luciferase reporter activity runs as follows: (compound concentration: 200 nM) inactive: 0.507; (compound concentration: 10 uM) inactive: 0.666.
Turning to `CO/N=C(/C(=O)NC1C(=O)N2C(C(=O)O)=C(C[n+]3csc(CCO)c3C)CSC12)c1csc(N)n1` (centres undefined), the TEAD-luciferase reporter activity runs as follows: (compound concentration: 200 nM) inactive: 0.448; (compound concentration: 2 uM) inactive: -0.558; (compound concentration: 10 uM) inactive: -0.0461.
As to `Cc1cccc(-c2[nH]c(C(C)(C)C)nc2-c2ccc3nccnc3c2)n1`, the TEAD-luciferase reporter activity by setting is: (compound concentration: 200 nM) inactive: 0.0459; (compound concentration: 2 uM) inactive: -1.14; (compound concentration: 10 uM) inactive: -2.28.
The corresponding values for `COc1ccc2c(C3COC(CCCNC(C)=O)OC3)cccc2c1` (centres undefined) are inactive: -0.84, inactive: 0.62 and active: 5.56.
For `CC1=C(/C=C/C(C)=C/C=C/C(C)=C/C=C/C=C(C)/C=C/C=C(C)/C=C/C2=C(C)CCCC2(C)C)C(C)(C)CCC1` [Provitamin A], the TEAD-luciferase reporter activity (compound concentration: 2 uM) is inactive: -0.668.
For `CC1=C(/C=C/C(C)=C/C=C/C(C)=C/C=C/C=C(C)/C=C/C=C(C)/C=C/C2=C(C)CCCC2(C)C)C(C)(C)CCC1` [B-Carotene], the TEAD-luciferase reporter activity by setting is: (compound concentration: 200 nM) inactive: -1.58; (compound concentration: 10 uM) inactive: 0.165.
Regarding `CCOC(=O)Cc1nc(-c2ccc(Cl)cc2)oc1OCC`, the TEAD-luciferase reporter activity was inactive: -1.22 (compound concentration: 200 nM), inactive: -0.343 (compound concentration: 2 uM) and inactive: -0.979 (compound concentration: 10 uM).
For `CC(C)(C)NC(=O)c1ccc(Oc2cc(F)c(CC(=O)O)cc2Cl)c(NS(=O)(=O)c2c(Cl)cccc2Cl)c1`, in that order: inactive: 0.432, inactive: -1.39 and inactive: -0.639.
For `NC(=O)C1(N2CCCCC2)CCN(CCCN2c3ccccc3CCc3ccc(Cl)cc32)CC1`, in that order: inactive: 1.09, inactive: 1.26 and inactive: -0.193.
For `CCNC1CN(CCCOC)S(=O)(=O)c2sc(S(N)(=O)=O)cc21` (centres undefined) [brinzolamide], in that order: inactive: 2.56, inactive: -1.36 and inactive: 2.42.
Regarding `CC(=O)N1CCN([C@H]2CCN(C(=O)N(C)[C@H](C)c3cc(C(F)(F)F)cc(C(F)(F)F)c3)[C@@H](c3ccc(F)cc3C)C2)CC1` [Casopitant mesylate], the TEAD-luciferase reporter activity is, setting by setting: (compound concentration: 200 nM) inactive: -0.718; (compound concentration: 2 uM) inactive: -1.39; (compound concentration: 10 uM) inactive: 1.14.
Turning to `CC(C)CCN(C)C1CCc2ccccc21` (centres undefined), the TEAD-luciferase reporter activity reads like this: (compound concentration: 200 nM) inactive: 0.576; (compound concentration: 10 uM) inactive: -1.54.
For `CCCC1([C@H](O)C/C=C/[C@H]2[C@H](O)CC(=O)[C@@H]2CCCCCCC(=O)OC)CCC1` [butaprost, BTG], the TEAD-luciferase reporter activity (compound concentration: 2 uM) was inactive: -0.138.
In the case of `CCCC1([C@H](O)C/C=C/[C@H]2[C@H](O)CC(=O)[C@@H]2CCCCCCC(=O)OC)CCC1`, the TEAD-luciferase reporter activity reads like this: (compound concentration: 200 nM) inactive: -1.69; (compound concentration: 10 uM) inactive: -1.78.
`CC(C)NCC(O)COc1ccc(CC(N)=O)cc1` [(S)-atenolol]: under “compound concentration: 2 uM”, the TEAD-luciferase reporter activity was inactive: -0.538.
`CC(C)NCC(O)COc1ccc(CC(N)=O)cc1` (centres undefined): the TEAD-luciferase reporter activity (compound concentration: 200 nM) is inactive: 1.41 and the TEAD-luciferase reporter activity (compound concentration: 10 uM) was inactive: 1.18.
For `CC1=C(C#N)C(c2cccc3ncc(-c4ccccc4)cc23)C(C(=O)OC(C)C)=C(N)N1` (centres undefined), the TEAD-luciferase reporter activity was inactive: -2.17 (compound concentration: 200 nM), inactive: -0.289 (compound concentration: 2 uM) and inactive: -1.79 (compound concentration: 10 uM).
Regarding `CCN(CC)CCNc1nccc(NCc2ccc(CNc3nc(Cl)ncc3F)cc2)n1`, the TEAD-luciferase reporter activity was inactive: 0.303 (compound concentration: 200 nM), inactive: 1.33 (compound concentration: 2 uM) and inactive: 0.519 (compound concentration: 10 uM).
